Results published in article PMC11183095.
Changes are numbered by the printed parent chain. No constants are given. Whether binding was seen depends on the method and setting. In cells and extracts the contact can be indirect. Some entries that bind do so weakly or less than the wild type. For some assays here: Sequences can lack the tags named with a protein.

Protein sequences, listed by entry. Tags and fused reporters are not part of them.
UniProt P14618: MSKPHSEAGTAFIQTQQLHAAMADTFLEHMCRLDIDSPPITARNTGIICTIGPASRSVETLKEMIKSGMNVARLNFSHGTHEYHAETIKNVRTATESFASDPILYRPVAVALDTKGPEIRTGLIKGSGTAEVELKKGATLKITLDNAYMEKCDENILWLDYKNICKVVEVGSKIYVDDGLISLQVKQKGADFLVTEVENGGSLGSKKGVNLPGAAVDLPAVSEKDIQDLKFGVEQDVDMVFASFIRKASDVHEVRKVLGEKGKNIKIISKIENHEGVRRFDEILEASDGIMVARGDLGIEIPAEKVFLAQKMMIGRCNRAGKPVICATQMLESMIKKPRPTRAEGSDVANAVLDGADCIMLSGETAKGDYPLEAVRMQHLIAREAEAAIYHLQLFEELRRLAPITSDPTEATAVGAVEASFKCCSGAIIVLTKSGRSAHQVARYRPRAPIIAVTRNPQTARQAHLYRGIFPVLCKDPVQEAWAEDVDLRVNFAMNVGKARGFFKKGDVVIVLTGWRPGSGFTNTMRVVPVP

Tests used:
[1] = biological target: Phosphoglycerate mutase 1 (PGAM1), endogenous (human (endogenous in A549)) (UniProt P18669); test: co-IP; anti-PGAM1 immunoprecipitation from whole-cell lysates of A549 (also H1299, MCF-7, MDA-MB-231, AGS, Jurkat tumour cells; with or without EGF), western blot; IgG as negative control
Flag-PGAM1 Y133E (human) = biological target: T1, Flag-PGAM1 Y133E (human) (UniProt P18669); test: co-IP; anti-Flag immunoprecipitation from A549 transfected with Flag-PGAM1 or its mutants for 48 h, western blot for PKM2; with or without PKM2 or HA-Src overexpression, EGF, FGF1 or PDGFA
T1 sequence: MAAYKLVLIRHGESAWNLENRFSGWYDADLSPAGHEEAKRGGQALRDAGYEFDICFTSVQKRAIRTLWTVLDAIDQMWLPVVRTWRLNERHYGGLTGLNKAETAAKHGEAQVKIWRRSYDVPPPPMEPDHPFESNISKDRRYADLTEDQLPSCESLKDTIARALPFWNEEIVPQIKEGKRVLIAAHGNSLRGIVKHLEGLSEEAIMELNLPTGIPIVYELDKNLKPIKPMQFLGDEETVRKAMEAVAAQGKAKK

Flag-PGAM1 Y133F (human) = biological target: T2, Flag-PGAM1 Y133F (human) (UniProt P18669); test: as above
T2 sequence: T1 sequence with E133F

Flag-PGAM1 Y142E (human) = biological target: T3, Flag-PGAM1 Y142E (human) (UniProt P18669); test: as above
T3 sequence: T1 sequence with E133Y, Y142E

Flag-PGAM1 Y142F (human) = biological target: T4, Flag-PGAM1 Y142F (human) (UniProt P18669); test: as above
T4 sequence: T1 sequence with E133Y, Y142F

Flag-PGAM1 Y26F (human) = biological target: T5, Flag-PGAM1 Y26F (human) (UniProt P18669); test: as above
T5 sequence: T1 sequence with Y26F, E133Y

Flag-PGAM1 Y50F (human) = biological target: T6, Flag-PGAM1 Y50F (human) (UniProt P18669); test: as above
T6 sequence: T1 sequence with Y50F, E133Y

Flag-PGAM1 Y92F (human) = biological target: T7, Flag-PGAM1 Y92F (human) (UniProt P18669); test: as above
T7 sequence: T1 sequence with Y92F, E133Y

Measured: binding

Pyruvate kinase M2 (PKM2), endogenous (from UniProt P14618 1-531) (enzyme)
binds: all assays above
